In US20060239915A1, “Labeled macrophage scavenger receptor antagonists for imaging cardiovascular diseases” (priority 2002, published 2006):
Some results were stated once for a whole list of compounds, not compound by compound.

Molecular target: T1, Scavenger Receptor (Homo sapiens, UniProt P21757)
T1 sequence (P21757 1-451): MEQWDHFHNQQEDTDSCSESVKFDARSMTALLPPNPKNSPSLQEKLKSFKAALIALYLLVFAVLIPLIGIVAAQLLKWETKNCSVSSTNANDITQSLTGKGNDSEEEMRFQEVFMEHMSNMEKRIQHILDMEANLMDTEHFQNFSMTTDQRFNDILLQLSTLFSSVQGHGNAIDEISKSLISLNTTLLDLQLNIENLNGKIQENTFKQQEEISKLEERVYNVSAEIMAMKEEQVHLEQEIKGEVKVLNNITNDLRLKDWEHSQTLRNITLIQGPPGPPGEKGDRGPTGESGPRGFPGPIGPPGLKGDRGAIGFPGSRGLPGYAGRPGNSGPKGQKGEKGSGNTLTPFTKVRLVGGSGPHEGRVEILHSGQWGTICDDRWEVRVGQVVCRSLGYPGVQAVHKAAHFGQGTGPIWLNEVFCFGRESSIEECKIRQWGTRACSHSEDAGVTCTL
Experiment: Scavenger receptor binding assay ([125I]acLDL competition)
Conditions: competition with [125I]acLDL; mouse J774.1 or human THP-1 cells (not specified which)

SMILES	IC50 [µM]
O=C(Nc1ccc(I)cc1)c1cc(Br)ccc1NS(=O)(=O)c1ccc(Cl)cc1 [non-radioactive imaging agent 2]	< 40
O=C(Nc1ccc(Br)cc1)c1cc(Br)ccc1NS(=O)(=O)c1ccc(F)c(Cl)c1 [non-radioactive imaging agent 3]	< 40
